Assay: Recovery of macrolides from spiked environmental water by PrG-ELISA
[1] = spike level 0.75 ng/mL, sample dilution 10
[2] = spike level 0.075 ng/mL, sample dilution 10
[3] = spike level 2.00 ng/mL, sample dilution 100
[4] = spike level 0.15 ng/mL, sample dilution 10
[5] = spike level 3.33 ng/mL, sample dilution 100
[6] = spike level 1.05 ng/mL, sample dilution 10

CC[C@H]1OC(=O)[C@H](C)[C@@H](O[C@H]2C[C@@](C)(OC)[C@@H](O)[C@H](C)O2)[C@H](C)[C@@H](O[C@@H]2O[C@H](C)C[C@H](N(C)C)[C@H]2O)[C@](C)(O)C[C@@H](C)[C@@H]2N[C@@H](COCCOC)O[C@H]([C@H]2C)[C@]1(C)O [DIR, dirithromycin]
Found concentration, ERY eqs [1]: 0.37 ng/mL | RC (recovery) [1]: 114.3%

CC[C@H]1OC(=O)[C@H](C)[C@@H](O[C@H]2C[C@@](C)(OC)[C@@H](O)[C@H](C)O2)[C@H](C)[C@@H](O[C@@H]2O[C@H](C)C[C@H](N(C)C)[C@H]2O)[C@](C)(OC)C[C@@H](C)C(=O)[C@H](C)[C@@H](O)[C@]1(C)O [CLA, clarithromycin]
Found concentration, ERY eqs [2]: 0.069 ng/mL | RC (recovery) [2]: 97.3% | Found concentration, ERY eqs [3]: 1.97 ng/mL | RC (recovery) [3]: 103.5%

CC[C@H]1OC(=O)[C@H](C)[C@@H](O[C@H]2C[C@@](C)(OC)[C@@H](O)[C@H](C)O2)[C@H](C)[C@@H](O[C@@H]2O[C@H](C)C[C@H](N(C)C)[C@H]2O)[C@](C)(O)C[C@@H](C)CN(C)[C@H](C)[C@@H](O)[C@]1(C)O [AZI, azithromycin]
Found concentration, ERY eqs [4]: 0.083 ng/mL | RC (recovery) [4]: 141.3% | Found concentration, ERY eqs [5]: 1.27 ng/mL | RC (recovery) [5]: 95.2%

CCOC(=O)CCC(=O)O[C@H]1[C@H](O[C@@H]2[C@@H](C)[C@H](O[C@H]3C[C@@](C)(OC)[C@@H](O)[C@H](C)O3)[C@@H](C)C(=O)O[C@H](CC)[C@@](C)(O)[C@H](O)[C@@H](C)C(=O)[C@H](C)C[C@@]2(C)O)O[C@H](C)C[C@@H]1N(C)C [ESE, erythromycin ethyl succinate]
Found concentration, ERY eqs [6]: 0.50 ng/mL | RC (recovery) [6]: 83.8%
